{"source": "patent US20260137780A1", "about": "“MATERIALS AND METHODS FOR IMPROVED EXPANSION AND USES OF IMMUNE CELLS” (Janssen Biotech, Inc., priority 2021, published 2026)", "assay": "In vivo engraftment of adoptively transferred Vγ9Vδ2 T cells in NSG, NSG-IL15 and NOG-IL15 mice (Example 4)", "parameters": "species or system mouse", "settings": "with 20×10^6 non-enriched Vγ9Vδ2 T cells, IL-2 25 × 10^4 IU/kg ip, Zol 2.5 mg/kg iv", "data": [{"substance": "IL-2: IL-2 (ProleukinR)", "values": [{"measurement": "effect of treatment on total Vγ9Vδ2 T cell counts", "value": "negative effect"}, {"measurement": "effect of treatment on Vγ9Vδ2 T cell engraftment or persistence", "setting": "days 0, 7, 14, 21, 28", "value": "did not improve engraftment or persistence"}]}]}
